One test deals with HSF1 (UniProt Q00613). As to the kind of experiment: DAPPL (digital affinity profiling via proximity ligation, sequencing). To be noted: 10 mM Tris-HCl pH 7.5, 50 mM NaCl, 1 mM DTT, 4% glycerol, room temperature, 30 min; GST-TFs on glutathione beads, 16-mer random dsDNA library, 0.1% …; high values mean tight binding; double strand, one strand shown; scale: fold enrichment (6-mer frequency, TF over GST control).

By UniProt entry, the sequences of proteins in these tests, tags left out. Where a name states a change or a piece, a line headed by the entry shows the natural chain unless it says otherwise.
UniProt Q00613: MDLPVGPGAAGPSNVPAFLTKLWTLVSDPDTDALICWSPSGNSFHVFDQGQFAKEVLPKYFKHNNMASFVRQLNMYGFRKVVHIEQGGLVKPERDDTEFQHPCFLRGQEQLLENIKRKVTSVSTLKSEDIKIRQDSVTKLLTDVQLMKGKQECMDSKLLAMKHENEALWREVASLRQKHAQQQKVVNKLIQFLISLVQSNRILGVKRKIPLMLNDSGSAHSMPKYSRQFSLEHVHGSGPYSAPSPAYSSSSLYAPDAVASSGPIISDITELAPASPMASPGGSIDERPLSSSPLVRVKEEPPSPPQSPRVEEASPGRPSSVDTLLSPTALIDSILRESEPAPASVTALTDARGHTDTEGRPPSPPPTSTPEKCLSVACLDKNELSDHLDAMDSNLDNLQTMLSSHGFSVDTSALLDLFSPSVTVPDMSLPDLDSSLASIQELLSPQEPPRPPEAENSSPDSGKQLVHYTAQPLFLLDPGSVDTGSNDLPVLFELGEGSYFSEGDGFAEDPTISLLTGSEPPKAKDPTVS

The target of the next test is T1, ELF2 (UniProt Q15723).
T1 sequence: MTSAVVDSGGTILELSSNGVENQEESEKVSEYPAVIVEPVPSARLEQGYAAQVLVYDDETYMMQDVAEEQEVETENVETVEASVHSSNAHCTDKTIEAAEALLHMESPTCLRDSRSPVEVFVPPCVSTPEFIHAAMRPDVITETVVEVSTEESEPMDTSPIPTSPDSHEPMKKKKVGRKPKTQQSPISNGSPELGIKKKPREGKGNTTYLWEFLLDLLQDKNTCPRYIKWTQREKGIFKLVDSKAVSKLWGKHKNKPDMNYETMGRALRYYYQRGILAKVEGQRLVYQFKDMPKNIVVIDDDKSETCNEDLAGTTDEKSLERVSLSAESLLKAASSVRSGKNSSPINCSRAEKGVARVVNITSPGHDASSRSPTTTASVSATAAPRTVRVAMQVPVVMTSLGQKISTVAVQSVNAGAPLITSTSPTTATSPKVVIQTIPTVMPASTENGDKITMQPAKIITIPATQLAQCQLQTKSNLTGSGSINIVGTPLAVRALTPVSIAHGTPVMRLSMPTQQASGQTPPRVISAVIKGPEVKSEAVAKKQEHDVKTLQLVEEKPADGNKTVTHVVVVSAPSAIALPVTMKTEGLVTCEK
The description is as above. To be noted: 10 mM Tris-HCl pH 7.5, 50 mM NaCl, 1 mM DTT, 4% glycerol, room temperature, 30 min; GST-TFs on glutathione beads, 16-mer random dsDNA library, 0.1% …; high values mean tight binding; double strand, one strand shown; scale: fold enrichment (6-mer frequency, TF over GST control).

The list shows a part of the results, in another mix than the full data. For part of these data: At the low end of the ranking the order means little. Some of the results follow. For part of these data: Construct or isoform of the protein are uncertain.

For the sequence GATGTA, the binding signal in the test with HSF1 was determined as 1.01; with ELF2 it was 1.35.
Taken in the same sequence, the figures for TACAGG were 0.994 and 1.28.
Taken in the same sequence, the figures for CCTCAG were 1.07 and 1.2.
Taken in the same sequence, the figures for CCGCAG were 0.848 and 1.08.
For the sequence AACTCC, the binding signal turned out to be 1.23 with HSF1 and 1.32 in the test with ELF2.
Regarding CTCTCT, the binding signal came out at 1.69 with HSF1 and 1.5 in the test with ELF2.
As to CCACCC, the binding signal turned out to be 0.904 in the test with HSF1 and 1.18 in the test with ELF2.
Regarding TGACGG, the binding signal with HSF1 came out at 0.815; in the test with ELF2, 0.917.
Taken in the same sequence, the figures for TGGGTA were 0.857 and 0.948.
Taken in the same sequence, the figures for ACGGAA were 1.01 and 2.53.
Taken in the same sequence, the figures for ATTTAA were 1.62 and 1.2.
On to GGTTCC, for which the figures for the binding signal in the test with HSF1 and with ELF2 were 1.13 and 1.97, respectively.
Taken in the same sequence, the figures for GTAATT were 1.36 and 1.25.
For CATCAG, the binding signal stood at 0.792 with HSF1 and 0.918 with ELF2.
Taken in the same sequence, the figures for AGCAAA were 1.18 and 0.997.
Taken in the same sequence, the figures for GCCTAG were 1.21 and 0.871.
Turning to TGCGTT, the binding signal with HSF1 was determined as 1; with ELF2, 1.1.
Taken in the same sequence, the figures for ACCAAA were 0.899 and 0.993.
Taken in the same sequence, the figures for ATGCAG were 0.903 and 1.05.
Take TCATGG: the binding signal with HSF1 amounted to 0.998; with ELF2 it was 1.02.
Taken in the same sequence, the figures for CGGATT were 1.56 and 1.02.
Taken in the same sequence, the figures for CACATC were 0.883 and 1.49.
Take CATCAT: the binding signal with HSF1 stood at 0.952; in the test with ELF2 it was 1.03.
Taken in the same sequence, the figures for GCGACG were 0.78 and 0.866.
On to GCTAGG, for which the binding signal with HSF1 was 0.994; with ELF2, 0.889.
Taken in the same sequence, the figures for GTTGAA were 0.711 and 0.794.
Take TCAAGG: the figures for the binding signal with HSF1 and with ELF2 were 1.04 and 1.02, respectively.
Taken in the same sequence, the figures for ACCGCA were 0.928 and 1.17.
Taken in the same sequence, the figures for TGCATG were 0.853 and 1.03.
Taken in the same sequence, the figures for CTTTGA were 1.21 and 1.13.
Regarding CAGACT, the binding signal in the test with HSF1 stood at 1.06; in the test with ELF2, 0.993.
Taken in the same sequence, the figures for CCAAAC were 0.94 and 1.08.
As to TTAGCT, the binding signal with HSF1 was 1.82; with ELF2, 1.22.
Taken in the same sequence, the figures for AGTCCT were 0.903 and 1.06.
Consider ATATCT, for which the binding signal turned out to be 1.26 with HSF1 and 1.2 with ELF2.
With AACTGT, the binding signal amounted to 0.841 with HSF1 and 0.947 with ELF2.
As to CAAAAG, the binding signal with HSF1 turned out to be 0.991; in the test with ELF2, 0.957.
Taken in the same sequence, the figures for CGAACA were 1.76 and 1.09.
Taken in the same sequence, the figures for CTCTAC were 1.37 and 1.5.
Turning to TGTTGT, the binding signal with HSF1 turned out to be 0.946; in the test with ELF2, 1.08.
In the case of CGGTAT, the binding signal with HSF1 came out at 0.806; with ELF2, 1.17.
Taken in the same sequence, the figures for TATATT were 1.58 and 1.45.
For the sequence TAGTCA, the binding signal with HSF1 was 0.932; with ELF2, 0.874.
Taken in the same sequence, the figures for CAATGC were 0.993 and 1.15.
Taken in the same sequence, the figures for GGATAC were 0.667 and 1.03.
For GTCACT, the binding signal with HSF1 stood at 0.841; with ELF2, 1.09.
Taken in the same sequence, the figures for CTACAC were 1.11 and 1.25.
Take ATAAGC: the results for the binding signal with HSF1 and with ELF2 were 1.67 and 1.05, respectively.
GCGCAC: the binding signal with HSF1 came to 0.69; with ELF2 it was 0.916.
Turning to GCGTCC, the binding signal with HSF1 turned out to be 0.869; with ELF2, 1.26.
Taken in the same sequence, the figures for AACCAC were 0.997 and 1.14.
Taken in the same sequence, the figures for GTTCGT were 0.928 and 0.953.
For the sequence TACGAC, the values for the binding signal with HSF1 and with ELF2 were 1.14 and 1.27, respectively.
Take TACAGA: the binding signal in the test with HSF1 came out at 1.28; in the test with ELF2, 1.1.
Taken in the same sequence, the figures for TATTTA were 1.75 and 1.47.
Taken in the same sequence, the figures for ACTATT were 1.33 and 1.35.
Taken in the same sequence, the figures for ACTCAA were 1.07 and 1.15.
With GTAAAT, the binding signal with HSF1 came to 1.22; with ELF2 it was 1.12.
In the case of CATTGC, the figures for the binding signal with HSF1 and in the test with ELF2 were 0.889 and 1.04, respectively.
Taken in the same sequence, the figures for TCACCC were 0.927 and 1.15.

The record behind these values is paper PMC7862700.
